# In PubChem BioAssay AID588497 (NMMLSC, 2011):
# The whole screen tested about 360,000 compounds, of which about 780 (0.22%) were called active. Inconclusive means that the source gave no clear call. Such entries were picked first, then a sample of the others. Rule as the data show it: active = inhibition above about 35% (passing the limit was not always enough); inconclusive = no clear call, values can overlap the other calls.
# Test system: Botulinum neurotoxin type F light chain protease (Clostridium botulinum)
# Test: BoNT/F light chain protease inhibitors, primary screen, biochemical, flow cytometry, MLPCN library (AID 588497); also: plate controls were buffer without enzyme for full effect and enzyme alone for no effect
# Settings: Multiplex microsphere protease cleavage assay, at 10 µM, stronger effect = higher value
row,Compound,inhibition
1,C=CCOc1ccc(/C=C2\N=C(C)OC2=O)cc1OC,inconclusive: 18.1%
2,COC(=O)C1CC(=O)N(c2ccc(OCc3ccccc3Cl)cc2)C1 (centres undefined),inconclusive: 3.8%
3,CCOC(=O)C1CCN(Cc2cc(=O)oc3c(C)c(C)ccc23)CC1,inconclusive: -28.1%
4,CC(=O)N(C)c1ccc(N=Nc2ccc3ncccc3c2)cc1,inactive: -2.4%
5,O=C1CSC(c2cccs2)N1c1ccccc1 (centres undefined),inactive: -10.2%
6,Cc1ccccc1NC(=O)c1cccc(S(=O)(=O)Nc2cccc(C(=O)O)c2)c1,inconclusive: -28.8%
7,CC(=O)Nc1cccc(C(=O)N(Cc2ccccc2)Cc2ccccc2)c1,inconclusive: 50.1%
8,CC(=O)NC(CCc1ccc(Cl)c(Cl)c1)c1cccc(O)c(=O)c1 (centres undefined),inactive: 0.2%
9,CC(C)NC(=O)c1sc2c(c1C(=O)Nc1cccnc1)CCCC2,inconclusive: 67.5%
10,O=C(NC1CCN(S(=O)(=O)c2ccc(F)cc2)CC1)c1ccccc1,inconclusive: -24.3%
11,O=C(NCc1cc(Cl)cc(Cl)c1)c1csc([C@@H]2O[C@H](CO)[C@H](O)[C@H](O)[C@H]2O)n1,inactive: 4.3%
12,COc1cc(C2CC(=O)N(c3ccc(C)cc3)C(=O)C2)cc(OC)c1OC,inconclusive: 80.9%
13,C#CCOc1ccc(/C=C2/C(=O)N(c3cccc(C(=O)O)c3)N=C2C)cc1OC,active: 35.3%
14,Cc1ccc(O)c(CNc2cccc(C)n2)c1,inconclusive: -30.9%
15,CN1CCN(C(=O)c2cc3sc4ccccc4c3s2)CC1,inconclusive: -24.8%
16,COc1ccccc1CNS(=O)(=O)c1cccs1,inconclusive: 18.3%
17,Cc1oc2c(c(C)cc3oc(=O)c(CC(=O)NCC(=O)NCC(=O)O)c(C)c32)c1C,inconclusive: 3.6%
18,CCOC(=O)CSc1nc(C)cc(Oc2ccc(=O)n(C)n2)n1,inactive: -4.1%
19,CC(C(=O)c1ccc(-c2ccccc2)cc1)[n+]1cccc(C(N)=O)c1 (centres undefined),inconclusive: 7.7%
20,COc1ccc(Cl)cc1CC=NNC(=O)c1cccc(C)c1O,inactive: -10.8%
21,COC(=O)c1cccc(NC(=O)c2ccc[n+]([O-])c2)c1,inconclusive: -15.8%
22,CC(C)c1nc(NCC2CCCO2)c(C#N)c2c1COC(C)(C)C2 (centres undefined),inconclusive: -2.3%
23,O=C(c1cccc(Br)c1)c1nc2ccccc2[nH]c1=O,inactive: 12.6%
24,CCOc1cc(CNCCc2ccc(S(N)(=O)=O)cc2)cc(Cl)c1OCc1ccccc1,inactive: -27.7%

# A run of entries from further up, for reference:
row,Compound,inhibition
2,COC(=O)C1CC(=O)N(c2ccc(OCc3ccccc3Cl)cc2)C1 (centres undefined),inconclusive: 3.8%
3,CCOC(=O)C1CCN(Cc2cc(=O)oc3c(C)c(C)ccc23)CC1,inconclusive: -28.1%
4,CC(=O)N(C)c1ccc(N=Nc2ccc3ncccc3c2)cc1,inactive: -2.4%

# (listing goes on)

row,Compound,inhibition
1,Cc1ccc(N2CCN(S(=O)(=O)c3ccc(C)cc3)CC2)cc1,inconclusive: 9.1%
2,Cc1ccccc1NC(=O)c1ccc(CSc2ncccn2)cc1,inactive: -0.2%
3,COc1ccc(S(=O)(=O)N2CCN(Cc3ccccc3)CC2)cc1OC,inconclusive: 17.4%
4,Cc1cccc(C(=O)Nc2cc(S(=O)(=O)N3CCOCC3)ccc2N2CCCC2)c1,inactive: 4.3%
5,CNCC(=O)N(CC(C)C)c1c(N)n(CC(C)C)c(=O)[nH]c1=O,inactive: 0%
6,CSc1ccc(/C=N/NC(=O)c2ccc(-n3cnnn3)cc2)cc1,inactive: -11.3%
7,CC(C)(C)c1ccc(OCC(=O)NNC(=O)Nc2ccccc2)cc1,inconclusive: -21.5%
8,Cc1ccc2c(c1)N(C(=O)CCC(=O)NCc1cccc(Cl)c1)CC(C)O2 (centres undefined),inactive: 6.3%
9,C=CCN=C1S/C(=C/c2ccc([N+](=O)[O-])cc2)C(=O)N1CC=C,inconclusive: -26.9%
10,Cc1ccc(SCc2cc(=O)[nH]c(/N=C(\N)Nc3ccc(C)c(C)c3)n2)cc1,inactive: -8.3%
11,CN1CCN(S(=O)(=O)c2cccc(C(=O)NCCC3=CCCCC3)c2)CC1,inconclusive: 7.7%
12,COc1cc(/C=C2\SC(=S)N(NS(=O)(=O)c3ccccc3)C2=O)cc(OC)c1OC,inactive: -15.3%
13,O=C(NNC(=O)c1ccc(Cl)c([N+](=O)[O-])c1)c1ccncc1,inconclusive: 28.8%
14,S=C(Nc1ccc(Br)cc1)N1CCN(c2ccccn2)CC1,inconclusive: 3.8%
15,Cc1onc(-c2ccccc2)c1C(=O)c1ccccc1,inconclusive: -13%
16,COc1ccc(COC(=O)C2=C(C)NC(=O)NC2c2cccc(Br)c2)cc1 (centres undefined),inconclusive: -42.2%
17,O=C1CC(c2ccc(Cl)cc2)CC(O)=C1C=NCCO (centres undefined),inactive: -6.6%
18,O=C1CCCCC/C1=N/Nc1ccc(OCc2ccccc2)cc1,inconclusive: -17.5%
19,O=C1C(Cc2ccccc2O)NC(=S)N1c1ccccc1 (centres undefined),inactive: 2.8%
20,O=[N+]([O-])c1cccc(C(=Nc2ccc(Cl)cc2)NO)c1,inactive: -7.5%
21,Cc1cc(C)nc(NC(=O)c2ccc(Br)cc2)n1,inconclusive: 33.9%
22,CCOC(=O)CCCSc1nc(-c2ccc3c(c2)OCO3)cc(C(F)(F)F)c1C#N,inactive: 4.8%
23,COc1cc(-c2nc(-c3ccccc3)c(-c3cccs3)[nH]2)cc(OC)c1OC,inactive: -4.3%
24,C=CCOC(=O)C1=C(C)OC(N)=C(C#N)C1c1ccco1 (centres undefined),inconclusive: -3.9%

row,Compound,inhibition
1,COc1cccc(NC(=O)Nc2ccc3nc(C)c(C)nc3c2)c1,inconclusive: -3.9%
2,COc1cc(NC(=O)Nc2nc(C(N)Cc3ccc(C(F)(F)F)cc3)cs2)cc(OC)c1OC (centres undefined),inactive: -22.1%
3,O=C(CCCO)NC1Cc2ccccc2C1,inconclusive: -66.6%
4,Oc1ccc(N=Nc2ccc3c(c2)OCCO3)c2cccnc12,inactive: -30.6%
5,COC(=O)c1c(C(=O)OC)c2ccccn2c1C(=O)c1ccccc1,inconclusive: 14.5%
6,COc1ccc(C2(CNC(C)=O)CCOCC2)cc1OC,inactive: -6.8%
7,COc1ccc(C(O)P(=O)(OCc2ccccc2)c2ccc(N(C)C)cc2)cc1 (centres undefined),inconclusive: 21.2%
8,C#CCN(CC=C)C(=O)c1ccc2nc(C3CCCCC3)oc2c1,inconclusive: -26.9%
9,COC1CC(C)NC(=S)N1 (centres undefined),inconclusive: -98.8%
10,COc1cccc(NC(=O)CN(C)C(=O)c2ccc(N3CCOCC3)c([N+](=O)[O-])c2)c1,inconclusive: 6.2%
11,COC(=O)Nc1nnc(-c2ccncc2)s1,inactive: 3%
12,CCn1c(C)nnc1SCC(=O)Nc1cccc(Cl)c1,inconclusive: 1.1%
13,COc1ccc(C(=O)Nc2nccs2)cc1,inconclusive: 13%
14,C=Cc1ccc(Cn2nc(-c3ccc(C)cc3)ccc2=O)cc1,inactive: 11%
15,O=C1c2ccccc2C(=O)N1CCCn1ccnc1,inconclusive: 2.1%
16,O=c1c2ccccc2nc(-c2ccco2)n1CCc1ccc(O)cc1,inconclusive: 32.4%
17,OCC1(CCOc2ccccc2)CCN(Cc2ccccc2C(F)(F)F)CC1,inconclusive: -11.8%
18,CCCNc1cc(C)c(C#N)c2nc3ccccc3n12,inactive: 0.7%
19,CCc1cc(C(=O)c2ccc(OC)cc2)c(NC(=O)CN2CCCCC2)s1,inconclusive: -17.4%
20,Cc1ccc(S(=O)(=O)N2CCN(C(=O)C3CCN(C(=O)c4ccccc4C)CC3)CC2)cc1C,inactive: -3.8%
21,COc1ccc(CCNC(=O)CCCc2ccccc2)cc1OC,active: 34.7%
22,COc1ccc(C)cc1S(=O)(=O)N1CCc2ccccc2C1,inconclusive: 0%
23,CCCCCOC(=O)C1C(c2ccccc2)C(C(=O)O)C1c1ccccc1 (centres undefined),inactive: -1.4%
24,CC(C)O/C(=N\S(=O)(=O)c1ccc(Cl)cc1)c1ccccc1,inactive: 0.6%

row,Compound,inhibition
1,O=C(Nc1ccccc1Cl)OCC#CCOC(=O)Nc1ccccc1Cl,inactive: -3.7%
2,Cc1cc(C)nc(/N=C(\N)Nc2cccc(OCc3ccccc3)c2)n1,inconclusive: 11.2%
3,CCOC(=O)C(=N/O)/C(C)=N/NC(C)=O,active: 46.1%
4,COc1ccc(CCNC(=O)C(=O)NCC2CCNCC2)cc1OC,inconclusive: 15.2%
5,COc1ccc(C(=O)O/N=C(/c2cccs2)C(C)(C)C)cc1,inconclusive: 27.4%
6,CC1(c2nnnn2-c2ccc3c(c2)OCCO3)CCC(=O)N1CCCN1CCOCC1 (centres undefined),inactive: -7.2%
7,O=C(Nc1ccc(Oc2ccc(NC(=O)Nc3ccc([N+](=O)[O-])cc3)cc2)cc1)Nc1ccc([N+](=O)[O-])cc1,inactive: 8.2%
8,N#Cc1ccc(Cn2c(-c3ccc(F)cc3)noc2=O)cc1,inconclusive: 22.1%
9,Cc1ccc(NC(=O)C2CC(=O)N(Cc3ccco3)C2)cc1 (centres undefined),inconclusive: -4.7%
10,CCOC(=O)c1ccc(NC(=O)Cc2cccs2)cc1,inconclusive: 9.8%
11,O=C(CNS(=O)(=O)c1ccccc1)N/N=C/c1ccccc1[N+](=O)[O-],inconclusive: -30.9%
12,CCOC(=O)CC1CCCCN1C(=O)c1ccc2nc(CCOC)oc2c1 (centres undefined),inactive: -1.5%
13,O=C(NCc1cccnc1)Nc1ccccc1,inactive: -4.2%
14,Cc1cccc(Oc2nccc(C(F)(F)F)c2C(=O)Nc2ccc(F)cc2F)c1,inconclusive: -97.8%
15,COc1ccc(OC)c(-n2c(-c3ccn[nH]3)n[nH]c2=S)c1,inconclusive: 13.9%
16,c1ccc2c(c1)CCN(c1nc3ccccc3n3cnnc13)C2,inactive: 5.1%
17,CN1CCN(C(=O)c2ccccc2[N+](=O)[O-])CC1,inconclusive: -6.6%
18,CCn1c(=O)cc(OCC(=O)N(C)C2CCCCC2)c2ccccc21,inconclusive: -0.4%
19,O=C1c2nc3cc(-c4ccco4)[nH]n3c(=O)c2CN1C1CCCCC1,inconclusive: -65%
20,COc1ccccc1CNC(=O)CCCNC(=O)c1ccc(Cl)cc1,inactive: -6.4%
21,Cc1cc(F)ccc1NC(=O)C1CSC2(C)CCC(=O)N12 (centres undefined),inconclusive: -4.1%
22,O=C(Nc1ccn(Cc2c(F)c(F)cc(F)c2F)n1)c1ccc(COc2ccc(Cl)cc2Cl)o1,inactive: -20.3%
